These are yes or no findings as the source states them, for the method shown. Some results given as binding are weak or reduced against the parent protein; the word gives no strength.
How the values were obtained:
α5β1 integrin = α5β1 integrin (UniProt P08648); assay: ELISA on plate-coated integrin α5β1
αVβ3 integrin = αVβ3 integrin (UniProt P06756); assay: ELISA on plate-coated integrin αVβ3

Amino acid sequences for entries named in this document (tags omitted). A change or cut given only in a name is not applied to a line headed by its entry.
UniProt P08648: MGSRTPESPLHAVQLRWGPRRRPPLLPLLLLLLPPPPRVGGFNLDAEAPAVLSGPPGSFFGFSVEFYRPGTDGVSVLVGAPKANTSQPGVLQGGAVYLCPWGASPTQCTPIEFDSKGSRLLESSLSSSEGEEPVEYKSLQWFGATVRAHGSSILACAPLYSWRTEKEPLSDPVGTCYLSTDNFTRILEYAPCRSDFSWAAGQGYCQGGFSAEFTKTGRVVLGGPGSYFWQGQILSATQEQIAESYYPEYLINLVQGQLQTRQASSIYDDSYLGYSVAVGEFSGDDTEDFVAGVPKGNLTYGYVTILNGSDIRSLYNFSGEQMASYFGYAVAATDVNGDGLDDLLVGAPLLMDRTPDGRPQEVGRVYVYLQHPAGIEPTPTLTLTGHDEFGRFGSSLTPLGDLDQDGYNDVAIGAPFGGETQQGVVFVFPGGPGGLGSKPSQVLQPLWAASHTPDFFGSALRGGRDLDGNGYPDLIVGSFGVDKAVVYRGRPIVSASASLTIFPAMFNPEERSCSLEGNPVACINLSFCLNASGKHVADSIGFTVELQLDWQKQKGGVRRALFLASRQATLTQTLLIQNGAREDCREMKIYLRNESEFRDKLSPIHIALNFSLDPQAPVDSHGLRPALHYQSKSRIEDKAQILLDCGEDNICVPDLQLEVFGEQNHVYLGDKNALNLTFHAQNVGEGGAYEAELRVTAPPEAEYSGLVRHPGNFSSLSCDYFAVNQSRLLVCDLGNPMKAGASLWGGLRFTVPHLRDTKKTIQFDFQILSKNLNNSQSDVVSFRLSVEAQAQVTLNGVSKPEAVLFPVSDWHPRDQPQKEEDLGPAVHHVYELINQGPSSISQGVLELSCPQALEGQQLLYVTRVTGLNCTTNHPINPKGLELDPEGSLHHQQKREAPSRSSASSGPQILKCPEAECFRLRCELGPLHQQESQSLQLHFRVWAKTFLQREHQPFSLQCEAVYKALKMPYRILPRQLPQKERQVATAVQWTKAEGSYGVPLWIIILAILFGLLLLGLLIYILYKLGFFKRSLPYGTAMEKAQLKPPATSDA
UniProt P06756: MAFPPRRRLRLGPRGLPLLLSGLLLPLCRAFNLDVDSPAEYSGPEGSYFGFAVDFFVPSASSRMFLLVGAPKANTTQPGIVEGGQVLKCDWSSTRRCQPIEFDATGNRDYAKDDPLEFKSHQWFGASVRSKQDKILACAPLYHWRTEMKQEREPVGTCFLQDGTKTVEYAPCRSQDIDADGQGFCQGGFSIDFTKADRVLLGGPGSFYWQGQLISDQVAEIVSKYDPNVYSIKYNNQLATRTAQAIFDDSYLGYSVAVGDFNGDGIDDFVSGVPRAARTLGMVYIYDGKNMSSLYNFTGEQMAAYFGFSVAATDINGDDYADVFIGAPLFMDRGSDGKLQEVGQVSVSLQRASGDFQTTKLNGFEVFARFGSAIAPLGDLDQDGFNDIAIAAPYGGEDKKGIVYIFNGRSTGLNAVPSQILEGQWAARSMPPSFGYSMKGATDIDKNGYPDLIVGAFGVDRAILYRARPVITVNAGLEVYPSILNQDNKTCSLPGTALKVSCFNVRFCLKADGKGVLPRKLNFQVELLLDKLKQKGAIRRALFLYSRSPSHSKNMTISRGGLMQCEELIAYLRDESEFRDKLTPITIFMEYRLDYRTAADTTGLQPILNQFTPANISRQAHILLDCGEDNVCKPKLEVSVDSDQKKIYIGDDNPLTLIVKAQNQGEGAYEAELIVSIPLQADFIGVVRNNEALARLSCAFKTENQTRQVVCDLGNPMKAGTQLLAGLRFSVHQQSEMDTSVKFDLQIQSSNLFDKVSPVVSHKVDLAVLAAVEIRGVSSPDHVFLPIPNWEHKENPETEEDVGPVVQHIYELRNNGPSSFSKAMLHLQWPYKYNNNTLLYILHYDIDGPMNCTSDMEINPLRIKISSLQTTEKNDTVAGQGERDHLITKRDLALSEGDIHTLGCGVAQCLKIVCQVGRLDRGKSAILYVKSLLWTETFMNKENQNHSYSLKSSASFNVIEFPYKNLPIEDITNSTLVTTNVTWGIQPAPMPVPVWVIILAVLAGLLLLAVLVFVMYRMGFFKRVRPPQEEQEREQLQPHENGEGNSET

Binder | binding (α5β1 integrin) | binding (αVβ3 integrin)
225-460 K423Q human ANGPTL3 construct (ligand) TTPFLQLNEIRNVKHDGIPAECTTIYNRGEHTSGMYAIRPSNSQVFHVYCDVISGSPWTLIQHRIDGSQNFNETWENYKYGFGRLDGEFWLGLEKIYSIVKQSNYVLRIELEDWKDNKHYIEYSFYLGNHETNYTLHLVAITGNVPNAIPENKDLVFSTWDHKAKGHFNCPEGYSGGWWWHDECGENNLNGKYNKPRAQSKPERRRGLSWKSQNGRLYSIKSTKMLIHPTDSESFE | binds | binds
228-460 K423Q human ANGPTL3 construct (ligand) FLQLNEIRNVKHDGIPAECTTIYNRGEHTSGMYAIRPSNSQVFHVYCDVISGSPWTLIQHRIDGSQNFNETWENYKYGFGRLDGEFWLGLEKIYSIVKQSNYVLRIELEDWKDNKHYIEYSFYLGNHETNYTLHLVAITGNVPNAIPENKDLVFSTWDHKAKGHFNCPEGYSGGWWWHDECGENNLNGKYNKPRAQSKPERRRGLSWKSQNGRLYSIKSTKMLIHPTDSESFE | binds | binds

Results, then the binder that gave them:

binding (α5β1 integrin) | binding (αVβ3 integrin) | Binder
binds | binds | 242-460 K423Q human ANGPTL3 construct (ligand) IPAECTTIYNRGEHTSGMYAIRPSNSQVFHVYCDVISGSPWTLIQHRIDGSQNFNETWENYKYGFGRLDGEFWLGLEKIYSIVKQSNYVLRIELEDWKDNKHYIEYSFYLGNHETNYTLHLVAITGNVPNAIPENKDLVFSTWDHKAKGHFNCPEGYSGGWWWHDECGENNLNGKYNKPRAQSKPERRRGLSWKSQNGRLYSIKSTKMLIHPTDSESFE
binds | binds | 233-460 K423Q human ANGPTL3 construct (ligand) EIRNVKHDGIPAECTTIYNRGEHTSGMYAIRPSNSQVFHVYCDVISGSPWTLIQHRIDGSQNFNETWENYKYGFGRLDGEFWLGLEKIYSIVKQSNYVLRIELEDWKDNKHYIEYSFYLGNHETNYTLHLVAITGNVPNAIPENKDLVFSTWDHKAKGHFNCPEGYSGGWWWHDECGENNLNGKYNKPRAQSKPERRRGLSWKSQNGRLYSIKSTKMLIHPTDSESFE
binds | binds | 241-460 K423Q human ANGPTL3 construct (ligand) GIPAECTTIYNRGEHTSGMYAIRPSNSQVFHVYCDVISGSPWTLIQHRIDGSQNFNETWENYKYGFGRLDGEFWLGLEKIYSIVKQSNYVLRIELEDWKDNKHYIEYSFYLGNHETNYTLHLVAITGNVPNAIPENKDLVFSTWDHKAKGHFNCPEGYSGGWWWHDECGENNLNGKYNKPRAQSKPERRRGLSWKSQNGRLYSIKSTKMLIHPTDSESFE

From patent US20160008433A1
